# Out of some 320,000 compounds screened, about 2,100 (0.66%) were called active. This list was built around the results that the source calls inconclusive (neither active nor inactive); the mix of calls is not that of the screen. Calls follow the shape of the dose curve; as a rule, active = well fitted inhibition curve with a large enough effect in the signal ratio, with a control signal flat (not every such curve was filed as active); inconclusive = small, poorly fitted or top-dose-only effect, or effect the other way, or a change in a side signal; inactive = flat fitted curve, though single readings scatter; the % refers to the signal ratio. Where the call is inconclusive, the potency comes from a doubtful curve fit.
# Experiment: qHTS Assay for Lipid Storage Modulators in Drosophila S3 Cells
# Details: BODIPY lipid droplet fluorescence, 18-24 h, cells fed with added oleic acid; lipid storage change, negative = inhibition: at 46.1 µM (top of the series) unless noted
# Method in brief: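 Laser-scanning cytometry quantifies lipid droplet accumulation (500–530 nm total intensity; droplet/cell object ratio) in oleic acid-fed (400 uM added) Drosophila S3 cells treated with a concentration series. 20 uM Triacsin C defined 100% inhibition.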
# % is scaled to controls: 0 for no effect and ±100 for the full control effect; potency is read from the fitted curve at half-maximal effect.
Compound,"lipid storage change, negative = inhibition",Potency
CCC(=O)O[C@@H]1[C@@H](OC(C)=O)[C@@]2(O)C(C[C@H](O)C2(C)C)[C@](C)(O)[C@H]2CC[C@@H]3[C@@H](O)[C@]12C[C@@]3(C)O (stereo partly drawn),inconclusive: 0.822%,
CN(C)CC#CCn1c2ccccc2c2ccccc21,inconclusive: 7.12%,
COC(=O)C(O)(c1ccc(N(C)C(=O)COc2ccccc2)cc1)C(F)(F)F (stereo not drawn),inconclusive: 23.9%,
COC(=O)C1=C(c2ccccc2OCc2ccccc2)C[C@@H]2CC[C@H]1N2C(=O)NCc1ccccc1,inactive,
COc1ccccc1Oc1c(C)oc2cc(OC(=O)N(C)C)ccc2c1=O,inconclusive: 10.9%,
Cc1ccc(C)c(OCC(=O)N2CCN(Cc3ccc4c(c3)OCO4)CC2)c1,,"inconclusive: 32.6 µM [falling, single point]"
CCc1nc(N2CCNCC2)c(C#N)c2c1CSC(C)(C)C2,inconclusive: 46.3%,
CCCC(=O)OCC[N+](C)(C)C,inconclusive: -9.92%,
CCCCCCP(=O)(O)c1ccccc1,,"inconclusive: 0.731 µM [falling, full curve]"
CCN(CC)C(=O)Cn1cc(/C=C2\C(=O)NC(=O)N(c3ccccc3F)C2=O)c2ccccc21,inconclusive: -28%,
c1ccc2c(CNC3CCCCC3)c[nH]c2c1,,"inconclusive: 29.1 µM [rising, single point]"
CCC(CO)NC(=O)C1C=C2c3cccc4[nH]cc(c34)CC2N(C)C1 (stereo not drawn),inconclusive: -10.2%,
Cc1ccc(S(=O)(=O)N(c2cc(Cl)c(O)c(Cl)c2)P(=O)(OC(C)C)OC(C)C)cc1,inconclusive: 6.08%,
CCc1ccccc1NC(=O)CN1CCN(C(=O)COc2ccccc2C#N)CC1,inconclusive: -0.276%,
N=c1sc2c(n1Cc1ccccc1)CCCC2,,"inconclusive: 25.9 µM [falling, single point]"
ON1C2CCCCC2N(O)C1c1ccccc1 (stereo not drawn),inactive,
O=c1c2ccccc2nc(/C=C/c2ccc(O)cc2)n1-c1cccc(O)c1,inconclusive: -0.712%,
COC(=O)C1=C(c2ccc(C(C)=O)cc2)C[C@@H]2CC[C@H]1N2C(=O)NCCOc1ccccc1Cl,inconclusive: 4.48%,
COc1ccc(-n2c(SCCN(C)C)nc3ccccc3c2=O)cc1,inconclusive: -12.1%,
CNC(C)(C)Cc1ccccc1,inconclusive: -10.9%,
COC1C(OC(=O)c2ccc(C)[nH]2)C(O)C(Oc2ccc3c(O)c(NC(=O)c4ccc(O)c(CC=C(C)C)c4)c(=O)oc3c2Cl)OC1(C)C (stereo not drawn),inconclusive: -23.2%,
Cc1ccc2oc(=O)n(CCOc3ccccc3)c2c1,,"inconclusive: 13 µM [activator, partial curve, poor fit]"
O=C1NC(=O)N(CC2CCCO2)C(=O)/C1=C/c1cccs1 (stereo not drawn),inconclusive: -8.98%,
O=S1(=O)CCN(CCc2c[nH]c3ccccc23)CC1,inconclusive: 29.8% [at 9.22 µM],
CCCCn1c(NS(=O)(=O)c2ccccc2)c(C(=O)OCC)c2nc3ccccc3nc21,,"inconclusive: 6.51 µM [falling, single point]"
COc1cc2c(cc1OC)CN(c1ccc([N+](=O)[O-])c(C(F)(F)F)c1)CC2,inconclusive: -34%,

Compound,"lipid storage change, negative = inhibition",Potency
CCOC(=O)C(O)(c1ccc(N=c2ccccn2C)cc1)C(F)(F)F (stereo not drawn),inconclusive: 17.1%,
CCOc1cc2c(cc1OCC)-n1cccc1C(c1ccccc1OC)NC2 (stereo not drawn),inconclusive: 17.1%,
CCOC(=O)CC(NC(=O)C(Cc1ccc(N(CCCl)CCCl)cc1)NC(C)=O)C(=O)OCC (stereo not drawn),inconclusive: -18.8%,
CCN(CC)CCOC(=O)C(O)(c1ccccc1)c1ccccc1,inconclusive: -5.79%,
CC(=O)c1cc(C(C)=O)c(C)[n+](C)c1C,inactive,
COc1ccc(OC)c(C(O)C2CCCCN2)c1 (stereo not drawn),,"inconclusive: 0.13 µM [activator, full curve, poor fit]"
COc1ccc(CC2C(=O)NC(=O)NC2=O)c(OC)c1,inconclusive: -68%,
C=CCn1c(O)c(C(CC)=Nc2cccc(C(=O)O)c2)c(=O)[nH]c1=O,inconclusive: -27.9%,
COc1ccc(CCn2c(O)c(C=NCc3ccc4c(c3)OCO4)c(=O)[nH]c2=O)cc1OC,inconclusive: 3.26%,
CN(C)C(=O)Oc1ccc(OCc2cccc[n+]2C)cc1,inconclusive: 140%,
CN(C)c1nc(-c2ccccc2)[n+](C)s1,inconclusive: 23.9%,
CC(C(=O)Nc1ccc(Cl)cc1Cl)N1CC=C(c2ccccc2)CC1 (stereo not drawn),inconclusive: -27.3%,
COc1cc(CNCCc2c[nH]c3ccccc23)cc(OC)c1,,"inconclusive: 6.51 µM [falling, full curve]"
Cn1c(=O)oc2cc(S(=O)(=O)Nc3cccc(C(=O)O)c3)ccc21,,"inconclusive: 29.1 µM [falling, single point]"
COC(=O)C1=C(c2cccc(OCc3ccccc3)c2)C[C@@H]2CC[C@H]1N2C(=O)NC1CCN(Cc2ccccc2)CC1,,"inconclusive: 6.51 µM [activator, single point]"
CC1CCC(NCCc2ccc3c(c2)OCO3)CC1 (stereo not drawn),inconclusive: 38%,
N/C(=N\[N+](=O)[O-])N1CCN(C(=O)Oc2ccccc2)CC1,,"inconclusive: 29.1 µM [activator, single point]"
C[C@@H]1C[C@@H]2O[C@H]2/C=C\C=C\C(=O)Cc2c(Cl)c(O)cc(O)c2C(=O)O1,,"inconclusive: 2.31 µM [falling, partial curve, poor fit]"
Cc1cccc(OCC(=O)N2CCN(Cc3ccc4c(c3)OCO4)CC2)c1,inconclusive: 6.95%,
O=C(COc1ccccc1)Nc1ccc(Cl)cc1C(=O)c1ccccc1,inconclusive: 24%,
CC(C(=O)c1cn(C)c2ccccc12)c1ccccc1 (stereo not drawn),inconclusive: 187%,
CCOP(=O)(OCC)C(NC(=O)C(Cl)Cl)C(Cl)(Cl)Cl (stereo not drawn),inconclusive: -19.1%,
O=C(CNC(=O)OCc1ccccc1)Nc1ccc(Br)cc1C(=O)c1ccccc1Cl,inconclusive: -63.1%,
Nc1ccc(N2CCN(Cc3ccccc3Cl)CC2)c(Cl)c1,,"inconclusive: 6.51 µM [activator, single point]"
Cc1nn(Cc2ccccc2)c(C)c1C(=O)OCC(=O)NC1CCS(=O)(=O)C1 (stereo not drawn),inconclusive: -26.2%,
Clc1ccc2sc(C3CCNCC3)nc2c1,inconclusive: 29.7%,

# Ordered by SMILES length (low to high): three of the compounds above
Compound,"lipid storage change, negative = inhibition",Potency
CC1CCC(NCCc2ccc3c(c2)OCO3)CC1 (stereo not drawn),inconclusive: 38%,
COc1ccccc1Oc1c(C)oc2cc(OC(=O)N(C)C)ccc2c1=O,inconclusive: 10.9%,
COC(=O)C1=C(c2cccc(OCc3ccccc3)c2)C[C@@H]2CC[C@H]1N2C(=O)NC1CCN(Cc2ccccc2)CC1,,"inconclusive: 6.51 µM [activator, single point]"

# Continued.

Compound,"lipid storage change, negative = inhibition",Potency
COc1cc(/C=C/C(=O)c2c(O)n(CCc3ccccc3)c(=O)[nH]c2=O)ccc1O,inconclusive: -44.8%,
COc1ccc(Cn2c(O)c(C=Nc3c(C)n(C)n(-c4ccccc4)c3=O)c(=O)[nH]c2=O)cc1,inconclusive: -0.0376%,
CN(C)CCN=Cc1c(O)n(-c2cccc(C(F)(F)F)c2)c(=O)[nH]c1=O,inconclusive: -83.8%,
Cc1noc(C)c1C(=O)N1CCC2(CC1)OCCO2,inconclusive: -3.6%,
CNC(=O)Oc1cccc(-c2cn3cc(OC(=O)NC)ccc3n2)c1,inconclusive: 0.36%,
CCCCn1c(C)c(C(=O)OCC)c2c(CN3CCOCC3)c(O)ccc21,,"inconclusive: 2.59 µM [activator, partial curve]"
CCN(CC)c1ccc(N=Cc2c(O)n(Cc3ccco3)c(=O)[nH]c2=O)cc1,inconclusive: 4.13%,
CCCCn1c(=O)c(C(=O)Nc2cnccn2)c(O)c2ccccc21,inconclusive: 13.3%,
O=C(COC(=O)Cc1ccccc1)NNC(=O)c1ccc([N+](=O)[O-])cc1,,"inconclusive: 29.1 µM [activator, single point]"
CC(C)c1ccccc1NC1=NCCCS1,,"inconclusive: 0.164 µM [activator, single point]"
c1ccc(C2=NP(N3CCOCC3)(N3CCOCC3)=NC(N3CCOCC3)=N2)cc1,inconclusive: -8.25%,
CN1C(=O)/C(=C/c2cccn2-c2ccc3ccccc3c2)C(=O)NC1=S,,active: 3.26 µM
CCCCc1nc2ccccc2c(=O)n1-c1ccccc1O,inactive,
Cn1c(=O)cc(OCC(=O)N2CCN(Cc3ccc4c(c3)OCO4)CC2)c2ccccc21,inconclusive: -7.15%,
CC(=O)c1ccc(OCC(=O)N2CCCC(N3CCN(c4ccccc4C)CC3)C2)cc1 (stereo not drawn),inconclusive: -0.171%,
COc1ccc(OC)c(-n2c(O)c(/C=C3\C=Nc4ccccc43)c(=O)[nH]c2=O)c1,inactive,
Cc1cc(OCc2nn[nH]n2)c2c3c(c(=O)oc2c1)CCCC3,,"inconclusive: 29.1 µM [activator, single point]"
OC(CNCCc1c[nH]c2ccccc12)c1ccccc1 (stereo not drawn),inconclusive: -17.6%,
COc1ccc(OCC(=O)N2CCN(Cc3ccc4c(c3)OCO4)CC2)cc1,inconclusive: 10.5%,
CC1(C)C2([N+](=O)[O-])CN3CC1([N+](=O)[O-])CN(C2)C3c1ccccn1 (stereo not drawn),inconclusive: 36.2%,
O=C(CCc1ccc(O)cc1)N1C[C@H]2C[C@@H](C1)c1cccc(=O)n1C2,inconclusive: 13.6%,
CCCCn1c(O)c(C(CC)=NCCCN(C)C)c(=O)[nH]c1=O,inconclusive: -107%,
CCC(=O)N1N=C(c2c(O)n(C)c(=O)n(C)c2=O)CC1c1ccccc1 (stereo not drawn),,"inconclusive: 6.51 µM [cytotoxic, single point]"
O=c1c2ccccc2nc(/C=C/c2ccc(O)cc2)n1-c1ccccc1O,inconclusive: -0.184%,
CC(=O)Nc1cccc2c1Cc1ccccc1-2,,"inconclusive: 29.1 µM [activator, single point]"
CC(=O)N1N=C2C3CCN(CC3)C2C1c1ccccc1 (stereo not drawn),inactive,

# Among those listed so far, these have an aryl methoxy group.
Compound,"lipid storage change, negative = inhibition",Potency
COc1ccccc1Oc1c(C)oc2cc(OC(=O)N(C)C)ccc2c1=O,inconclusive: 10.9%,
COc1ccc(-n2c(SCCN(C)C)nc3ccccc3c2=O)cc1,inconclusive: -12.1%,
COc1cc2c(cc1OC)CN(c1ccc([N+](=O)[O-])c(C(F)(F)F)c1)CC2,inconclusive: -34%,
CCOc1cc2c(cc1OCC)-n1cccc1C(c1ccccc1OC)NC2 (stereo not drawn),inconclusive: 17.1%,
COc1ccc(OC)c(C(O)C2CCCCN2)c1 (stereo not drawn),,"inconclusive: 0.13 µM [activator, full curve, poor fit]"
COc1ccc(CC2C(=O)NC(=O)NC2=O)c(OC)c1,inconclusive: -68%,
COc1ccc(CCn2c(O)c(C=NCc3ccc4c(c3)OCO4)c(=O)[nH]c2=O)cc1OC,inconclusive: 3.26%,
COc1cc(CNCCc2c[nH]c3ccccc23)cc(OC)c1,,"inconclusive: 6.51 µM [falling, full curve]"
COc1cc(/C=C/C(=O)c2c(O)n(CCc3ccccc3)c(=O)[nH]c2=O)ccc1O,inconclusive: -44.8%,
COc1ccc(Cn2c(O)c(C=Nc3c(C)n(C)n(-c4ccccc4)c3=O)c(=O)[nH]c2=O)cc1,inconclusive: -0.0376%,
COc1ccc(OC)c(-n2c(O)c(/C=C3\C=Nc4ccccc43)c(=O)[nH]c2=O)c1,inactive,
COc1ccc(OCC(=O)N2CCN(Cc3ccc4c(c3)OCO4)CC2)cc1,inconclusive: 10.5%,
